Some results were stated once for a whole list of compounds, not compound by compound.
Experiment: Stability of proenkephalin fragments and enkephalins ex vivo (plasma, liquor)
Format: in vitro ADME
Source text: In one embodiment the invention is based on and uses the discovered long term stability of proenkephalin and enkephalin-fp ex vivo in plasma (FIG. 3a). […] Proenkephalin and enkephalin-fp are stable as well in liquor.

B1: proenkephalin: precursor of the enkephalins, Sequence ID 1, including its fragments (protein)
chain: ECSQDCATCSYRLVRFADINFLACVMECEGKLPSLKIWETCKELLQLSKPELPQDGTSTLRENSKPEESHLLAKRYGGFMKRYGGFMKKMDELYPMEPEEEANGSEILAKRYGGFMKKNAEEDDSLANSSDLLKELLETGDNRERSHHQDGSDNEEEVSKRYGGFMRGLKRSPQLEDEAKELQKRYGGFMRRVGRPEWWMDYQKRYGGFLKRFAEALPSDEEGESYSKEVPEMEKRYGGFMRF
- half-life in plasma: more than 24 hours

From US8013123B2 (B.R.A.H.M.S. GmbH, priority 2004, dated 2011)
